Source: the supplement of paper PMC6445147
Values scatter widely in this assay.

B1: human tRNA-Pro; a variant is named by its letters at N, in order (parent)
chain: GGCTCGTTGGTCTAGNGGTATGATTCTCGCTTAGGGTGCGAGAGGTCCCGGGTTCNNATCCCGGACGAGCCC

Variants of: B1
Experiment: tRNA 3' processing efficiency (processed reads / all reads, maximum-likelihood estimate) (fraction); higher = more efficient 3' processing
Settings: HEK293T; construct: no Pol-II promoter ((-)CMV library)

Variant | tRNA 3' processing efficiency
TGA A58C T59G | 0.83
GAA G9C A14T G15A G17C A58G | 0.14
AAA T19G A20T T59G | 0.17
TAA A14T G15A T59C | 0.2
CGA A14G G17C A20G T53G | 0.17
TTA A14T T19G A58C | 0.25
CAT T8C A14C A58G | 0.5
GAA G9A G15T T53A T59G | 0.33
CCA A20T C71T | 0.4
GTA T19A T53A A58C | 0.2
CTA T19C T53A | 0.57
GTA T8C A20T | 0.25
CAG A14G G51A | 0.08
CAT T19C A20G A58G | 0.4
AAT G15C A58T | 0.33
GAG A14G G17T A20T A58G T59C | 0.2
GTA G15T G17C A20T A58G | 0.25
ATG A20G | 0.33
TGG G15C C55G | 0.5
GAA A14T G18A T19C T54A | 0.62
ATA A20T A58C | 0.25

Variant | tRNA 3' processing efficiency
TTA A14T T19A A58T | 0.25
CAA T53A A58G T59G | 0.33
CAA G9A T19A T59C | 0.25
GGA A20C T53A A58T T59C | 0.62
CAA G15C A20T A23T T54A | 0.25
AAC T19G T53A A58G | 0.58
GAA G9A G17C A20T G51A | 0.2
GTA T11C | 0.5
GCA G9A A14C G17T C55A | 0.25
CAA A14G G18C T19G T59G | 0.4
AAG G17A G18C | 0.4
GAA T8C G15A T19A A20T T54G | 0.33
GTA G18A T19C A58C | 0.57
ATG A58G | 0.06
GAA G9A A14C T54A | 0.33
GGA T19C A20T C55T A58G T59C | 0.17
GAA T8C A20G G50A | 0.25
GGG C3T T4G G6T A20T | 0.25
GAA G36C T59C | 0.2
GAA A14C G18A T53C A58T | 0.25
GAA T19C C49T T59G | 0.43

Copied from the list.
GCA G9A A14C G17T C55A – tRNA 3' processing efficiency: 0.25
GTA G18A T19C A58C – tRNA 3' processing efficiency: 0.57

(continued)

Variant | tRNA 3' processing efficiency
GAG G15C G17T T19G A58T | 0.25
AAT T19G T59G | 0.5
GGA A14C G15T T19A T59C | 0.4
AAA T19C T53G | 0.38
GGA T8A G15T G17T C55A | 0.4
GAA A14C G15C T53A A58G | 0.4
GGG G9A G15A | 0.25
AAA T53C T59G | 0.25
GAA G1C G2T C3T | 0.25
GAT T8C A58T T59C | 0.5
GAA G15A A20T G51A | 0.25
AGA A14T T54A A58T | 0.2
GTA A14T G15C A58G | 0.64
CAT T19G A58T | 0.4
GGA G51A T59C | 0.4
GGC A14G C55T | 0.25
GTA A14T G22A | 0.2
GAA A33G A58T T59C | 0.6
AAT A14T G15A T19G | 0.4
GGA T8C T54A T59C | 0.29
GAA G1T G2T C3T T8C G17C A58C | 0.25

Variant | tRNA 3' processing efficiency
GAC G18A T59C | 0.14
GGA G36T C55T A58T | 0.29
GAA A14T G15C T19G T53A A58G | 0.54
GGG G15C A20C | 0.17
GAA A14G G15T A20T T59C | 0.11
GTA A14G T19A A20T A23C A58T T59A | 0.18
GGA A14C G15C A20G C55A A58T | 0.4
GGA G15A T19A C55T A58T | 0.57
GAA A14C T19C T53A A58G | 0.43
GAA A33G G36C A58T | 0.29
AAA G9A T53A | 0.5
GAT G1C C3G A14C G17C G18C T19A | 0.43
GAA G18T T19C A58T | 0.33
GTG A14G T19G A58G | 0.4
GAA A14G G18C T53G A58T | 0.5
CTA A14C A20G A58G | 0.62
TGA T54A T59C | 0.13
AAC A14G A58C | 0.09
GGA T53A A58T T59C | 0.15
TAA A14T G15C T59A | 0.25
TAT G15C A58T | 0.38
